Source: publication PMC9998874

By UniProt entry, the sequences of proteins in these tests, tags left out.
UniProt Q13185: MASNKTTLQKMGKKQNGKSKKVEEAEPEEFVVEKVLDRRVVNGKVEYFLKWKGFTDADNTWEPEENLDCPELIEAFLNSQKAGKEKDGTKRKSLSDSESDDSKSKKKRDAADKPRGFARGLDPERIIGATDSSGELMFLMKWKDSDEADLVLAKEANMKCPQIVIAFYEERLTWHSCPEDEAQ
UniProt Q92769: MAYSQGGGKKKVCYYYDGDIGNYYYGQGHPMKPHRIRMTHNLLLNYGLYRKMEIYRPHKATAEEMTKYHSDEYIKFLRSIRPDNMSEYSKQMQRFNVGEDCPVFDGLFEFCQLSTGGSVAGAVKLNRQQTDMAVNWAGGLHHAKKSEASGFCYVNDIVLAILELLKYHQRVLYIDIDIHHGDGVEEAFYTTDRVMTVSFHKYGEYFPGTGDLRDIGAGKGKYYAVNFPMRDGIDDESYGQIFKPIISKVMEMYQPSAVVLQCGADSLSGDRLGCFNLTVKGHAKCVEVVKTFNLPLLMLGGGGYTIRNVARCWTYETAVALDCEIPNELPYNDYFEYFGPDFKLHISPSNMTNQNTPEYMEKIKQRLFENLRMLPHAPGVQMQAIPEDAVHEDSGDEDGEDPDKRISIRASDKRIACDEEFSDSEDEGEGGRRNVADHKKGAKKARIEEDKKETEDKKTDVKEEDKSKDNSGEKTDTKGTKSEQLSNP
UniProt Q14676: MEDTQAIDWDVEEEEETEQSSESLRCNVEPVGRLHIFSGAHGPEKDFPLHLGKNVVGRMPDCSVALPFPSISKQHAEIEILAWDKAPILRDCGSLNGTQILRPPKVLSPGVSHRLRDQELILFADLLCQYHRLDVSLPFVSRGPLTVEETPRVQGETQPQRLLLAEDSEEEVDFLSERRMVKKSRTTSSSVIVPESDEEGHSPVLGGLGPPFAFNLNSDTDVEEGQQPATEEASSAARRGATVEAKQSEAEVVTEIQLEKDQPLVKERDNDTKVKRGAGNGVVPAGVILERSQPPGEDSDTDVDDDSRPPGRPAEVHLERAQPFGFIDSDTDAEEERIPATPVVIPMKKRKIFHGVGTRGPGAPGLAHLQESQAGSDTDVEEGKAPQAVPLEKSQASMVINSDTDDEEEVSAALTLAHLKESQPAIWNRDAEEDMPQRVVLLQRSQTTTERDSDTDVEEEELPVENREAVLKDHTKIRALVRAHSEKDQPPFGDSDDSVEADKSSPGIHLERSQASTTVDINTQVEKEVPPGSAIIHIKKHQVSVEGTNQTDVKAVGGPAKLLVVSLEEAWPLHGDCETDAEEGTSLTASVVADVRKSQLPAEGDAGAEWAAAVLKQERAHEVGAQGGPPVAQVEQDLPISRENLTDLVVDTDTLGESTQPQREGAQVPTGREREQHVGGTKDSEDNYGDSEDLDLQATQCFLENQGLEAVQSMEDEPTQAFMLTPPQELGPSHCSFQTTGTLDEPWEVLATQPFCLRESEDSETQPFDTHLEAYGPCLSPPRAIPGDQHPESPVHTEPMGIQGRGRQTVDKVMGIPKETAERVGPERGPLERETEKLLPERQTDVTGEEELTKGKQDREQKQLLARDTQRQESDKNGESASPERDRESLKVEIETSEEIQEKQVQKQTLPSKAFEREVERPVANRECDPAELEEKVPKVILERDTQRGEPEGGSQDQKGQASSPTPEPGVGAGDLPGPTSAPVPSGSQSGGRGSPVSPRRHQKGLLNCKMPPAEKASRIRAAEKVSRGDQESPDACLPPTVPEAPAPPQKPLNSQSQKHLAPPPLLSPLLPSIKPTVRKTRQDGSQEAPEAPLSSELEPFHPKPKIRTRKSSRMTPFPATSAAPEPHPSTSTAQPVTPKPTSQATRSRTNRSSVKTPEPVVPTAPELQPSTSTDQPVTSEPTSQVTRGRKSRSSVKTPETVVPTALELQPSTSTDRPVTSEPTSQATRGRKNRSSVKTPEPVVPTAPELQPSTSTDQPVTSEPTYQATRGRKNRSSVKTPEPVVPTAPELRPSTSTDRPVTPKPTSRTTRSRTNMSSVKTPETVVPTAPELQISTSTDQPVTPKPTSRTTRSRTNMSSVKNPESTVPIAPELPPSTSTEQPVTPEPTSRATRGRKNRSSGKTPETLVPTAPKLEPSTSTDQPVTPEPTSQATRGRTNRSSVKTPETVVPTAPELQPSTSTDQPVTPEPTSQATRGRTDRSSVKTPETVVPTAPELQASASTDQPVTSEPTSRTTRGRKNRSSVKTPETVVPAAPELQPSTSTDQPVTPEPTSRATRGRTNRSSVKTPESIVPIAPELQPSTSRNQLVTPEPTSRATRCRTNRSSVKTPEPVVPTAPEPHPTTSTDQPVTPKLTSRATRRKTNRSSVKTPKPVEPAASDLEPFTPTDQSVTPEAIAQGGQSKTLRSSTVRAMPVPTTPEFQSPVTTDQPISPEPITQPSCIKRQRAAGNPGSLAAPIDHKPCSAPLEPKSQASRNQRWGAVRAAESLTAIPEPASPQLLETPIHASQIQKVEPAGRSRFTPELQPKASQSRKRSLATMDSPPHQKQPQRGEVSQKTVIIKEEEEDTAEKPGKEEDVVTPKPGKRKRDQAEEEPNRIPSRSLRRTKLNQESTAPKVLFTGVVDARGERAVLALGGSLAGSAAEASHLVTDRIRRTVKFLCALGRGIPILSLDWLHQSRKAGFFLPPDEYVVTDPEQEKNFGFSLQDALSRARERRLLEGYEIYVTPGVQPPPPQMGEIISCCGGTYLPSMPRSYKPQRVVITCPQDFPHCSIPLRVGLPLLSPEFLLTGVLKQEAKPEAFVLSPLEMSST
UniProt Q13547: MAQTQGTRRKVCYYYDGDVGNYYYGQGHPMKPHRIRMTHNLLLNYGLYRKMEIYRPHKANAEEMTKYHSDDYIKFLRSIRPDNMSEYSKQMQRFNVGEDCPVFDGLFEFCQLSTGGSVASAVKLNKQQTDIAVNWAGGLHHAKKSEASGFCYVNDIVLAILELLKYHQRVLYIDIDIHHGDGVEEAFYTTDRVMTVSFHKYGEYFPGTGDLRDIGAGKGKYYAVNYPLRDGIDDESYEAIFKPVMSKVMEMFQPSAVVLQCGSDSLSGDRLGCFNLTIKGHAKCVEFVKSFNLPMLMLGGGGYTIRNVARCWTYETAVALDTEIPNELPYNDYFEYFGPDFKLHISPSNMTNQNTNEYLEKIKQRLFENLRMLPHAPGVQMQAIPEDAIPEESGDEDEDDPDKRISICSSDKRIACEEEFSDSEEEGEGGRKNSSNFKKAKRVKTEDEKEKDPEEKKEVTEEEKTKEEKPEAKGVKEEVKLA

The substances below were run against flag-tagged HP1γ (UniProt Q13185) (assay: affinity purification with mass spectrometry; flag-tagged HP1γ overexpressed in HEK293T, HP1γ complex immunoprecipitated by flag, silver staining and mass spectrometry).

binding, binds:
HDAC2, endogenous in HEK293T (from UniProt Q92769 1-488) (enzyme)
MDC1, endogenous in HEK293T (from UniProt Q14676 1-2089)
histone deacetylase 1 (HDAC1), endogenous in HEK293T (from UniProt Q13547 1-482) (enzyme)

These are yes or no findings as the source states them, for the method shown. Binding seen in cells or lysates may run through a third protein. A yes stands for co-enrichment or nearness to the bait. Other partners may have been found.
